This passage reports binding results from patent publication US20120276076A1.

Amino acid sequences for entries named in this document (tags omitted). Residues count along the entry.
UniProt P62331, residues 2-175: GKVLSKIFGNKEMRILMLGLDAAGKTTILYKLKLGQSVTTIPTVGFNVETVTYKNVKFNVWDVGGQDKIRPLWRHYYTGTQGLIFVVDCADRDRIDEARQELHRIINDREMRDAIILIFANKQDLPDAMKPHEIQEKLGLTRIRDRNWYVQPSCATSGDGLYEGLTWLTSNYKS

No constants are given. Whether binding was seen depends on the method and setting. In cells and extracts the contact can be indirect. Some results given as binding are weak or reduced against the parent protein; the word gives no strength. Tags and fused reporters may be left off the sequences shown.

For this test, the target named is ARF6-GTP (active ARF6, endogenous, from MEF lysates) (mouse) (UniProt P62331). Description: pull-down from MEF lysates on GST-GGA3 beads, Western blot.

B1: GST-GGA3 (protein, UniProt Q9NZ52 1-316, looked up, not shown: a dimerising Fc or GST)
chain: MAEAEGESLESWLNKATNPSNRQEDWEYIIGFCDQINKELEGPQIAVRLLAHKIQSPQEWEALQALTVLEACMKNCGRRFHNEVGKFRFLNELIKVVSPKYLGDRVSEKVKTKVIELLYSWTMALPEEAKIKDAYHMLKRQGIVQSDPPIPVDRTLIPSPPPRPKNPVFDDEEKSKLLAKLLKSKNPDDLQEANKLIKSMVKEDEARIQKVTKRLHTLEEVNNNVRLLSEMLLHYSQEDSSDGDRELMKELFDQCENKRRTLFKLASETEDNDNSLGDILQASDNLSRVINSYKTIIEGQVINGEVATLTLPDSEG
In the case of B1, the binding result is “binds”.
